Test results reported in patent US8337858B2, “Extracts of Aphanizomenon Flos Aquae and nutritional, cosmetic and pharmaceutical compositions containing the same” (Nutratec S.R.L., priority 2006, dated 2012).
Some results were stated once for a whole list of compounds, not compound by compound.

System: human plasma oxidized by CuCl2
Assay: MDA (TBA test) formation in human plasma oxidized by CuCl2
Conditions: 100 nM (extract: 100 nM of PC); oxidation of plasma with CuCl2 (FIG. 20)

phycocyanobilin [PCB]
degree of inhibition of MDA formation: 30-40%
